Library screening results

The values are deposited in ChEMBL (CHEMBL3988442, “University of Dundee, Small-Polar-MMV Screening Library” (2021)).

Each number is a percent effect as filed.
How 0% and 100% were set is not recorded. Most values in the screen are low, and negative values occur.
Compounds were drawn at random from those tested, without regard to their results.
A dash means the value is not listed here; it may have been measured.

Mtb growth Cornell: 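Whole-cell assay for inhibitors of Mycobacterium tuberculosis growth, labelled Cornell in the record; the read-out is not stated. The concentration is filed as 10 mM, unlikely as a test dose, so the dose is not known. The record gives no direction; compounds strong in two other growth screens of this library score well above the rest, so higher reads as stronger inhibition. Of about 53,000 compounds tested this way, about 900 (1.7%) reached 50% or more in at least one test.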
Mtb heat-shock: 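Assay on Mycobacterium tuberculosis, filed only as a heat shock assay from Cornell; the read-out is not stated. The concentration is filed as 10 mM, unlikely as a test dose, so the dose is not known. The record gives no direction; compounds that gave an IC50 in retests scored well above the rest, so higher reads as stronger inhibition. About 69,000 compounds were tested under these conditions; 1.4% (about 930) showed 50% or more at least once.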

| # | compound | Mtb growth Cornell | Mtb heat-shock |
|---|---|---|---|
| 1 | `COc1ccc(OC)c(Sc2ncccc2C(=O)NCCSC)c1` | -9.266 | 44.62 |
| 2 | `NS(=O)(=O)c1cccnc1Nc1c(Cl)cccc1Cl` | -19.32 | 10.44 |
| 3 | `CCc1ccsc1C(=O)N1CCCN(Cc2cscn2)CC1` | - | 11.31 |
| 4 | `COc1ccc(-c2cc(N)ccn2)c(OC)c1OC` | 3.133 | -30.07 |
| 5 | `Cn1c(CO)nnc1SCc1c(F)cccc1Br` | - | -16.17 |
| 6 | `CCOCC1CN(C(=O)c2cccc(C)n2)Cc2cnn(C)c21` (configuration not stated) | 27.18 | -14.82 |
| 7 | `Cc1cnc(N2CCc3c(c(COc4cncnc4)nn3C)C2)nc1` | 4.12 | -10.68 |
| 8 | `OCC1CCCN1c1cc(NCCc2c[nH]c3ccccc23)ncn1` (configuration not stated) | 30.98 | 3.142 |
| 9 | `COc1cccc2ccc(CN3CCN(c4ccncc4)CC3)nc12` | 37.1 | -13.89 |
| 10 | `Cc1noc(C)c1C(=O)NCC(c1cccc(F)c1)N(C)C` (configuration not stated) | - | -26.15 |
| 11 | `COc1ccc(CN(C)[C@@H]2COC[C@H]2c2ccc(F)cc2)c(OC)c1.O=C(O)CC(O)(CC(=O)O)C(=O)O` | 8.671 | -6.2 |
| 12 | `Cc1cc(C)n(CCCNC(=O)C(C)NC(=O)c2ccccc2Cl)n1` (configuration not stated) | -13.3 | 14.59 |
| 13 | `COc1cc2nc(NCc3cc(C)on3)nc(N)c2cc1OC` | -7.413 | 7.993 |
| 14 | `COCC1Cn2nnc(-c3cnn(C)c3)c2CN1Cc1ccc(C)s1.O=C(O)C(F)(F)F` (configuration not stated) | 17.25 | 17.92 |
| 15 | `COc1cc(C)c(C(C)Nc2ncc(C(N)=O)cc2Cl)cc1OC` (configuration not stated) | -21.31 | 9.428 |
| 16 | `[H][C@@]12CN(S(=O)(=O)c3ccccc3)C[C@]1([H])OCC(=O)N2c1ccccc1` | - | -8.61 |
| 17 | `CC(C(=O)N1CCN(c2ccc(F)cc2)CC1)n1ccnc1` (configuration not stated) | 0.361 | 2.096 |
| 18 | `CC(Cn1cccn1)NC(=O)NCCc1ccsc1` (configuration not stated) | - | -25.21 |
| 19 | `CC(C)NC(=O)CNC(=O)c1csc(Cc2ccccc2F)n1` | 17.97 | -1.27 |
| 20 | `CCOc1ccc2nc(NC(=O)c3c(C(=O)O)cnn3C)sc2c1` | 1.639 | 13.86 |
| 21 | `O=C(NCc1cc2n(n1)CCCN(Cc1ccc(CO)o1)C2)C1CCC1` | -1.306 | -18.12 |
| 22 | `Cc1ncc(CNC(CCO)C2CCCCC2)s1` (configuration not stated) | - | -18.33 |
| 23 | `[H][C@]12CN(C(=O)CC3CCCC3)CCN1C[C@@H](CO)[C@@H]2c1ccccc1` | -10.32 | -13.73 |
| 24 | `O=C(O)C(F)(F)F.[H][C@@]12COC[C@H](C(=O)N3CCCCO3)[C@]1([H])CN(Cc1c(C)noc1C)C2` | - | 10.78 |
| 25 | `O=C(O)C(F)(F)F.[H][C@@]12OCCN(CC3CC3)[C@@]1([H])CC[C@H]2OCC1CCOCC1` | 15.74 | -24.78 |
| 26 | `Cc1ccsc1-c1nccn1CCN(C)S(C)(=O)=O` | 26.36 | 2.71 |
| 27 | `O=C(N[C@@H]1CN(CCc2ccc(F)cc2)C[C@H]1O)c1cscn1` | - | -11.73 |
| 28 | `CC(=O)Nc1nc(C(=O)NCCOc2ccccc2)cs1` | 18.08 | -22.82 |
| 29 | `O=C(c1cccnc1)N1CCCC(c2cc(C(F)F)n3ncnc3n2)C1` (configuration not stated) | -43.41 | -2.474 |
| 30 | `CSc1nccn1-c1cccc(C(=O)NCC(F)(F)F)c1` | 2.683 | -4.907 |
| 31 | `Cc1[nH]c2c(F)cccc2c1CC(=O)NCCCNc1cccnc1` | 12.87 | 16.22 |
| 32 | `CCS(=O)(=O)N1CCC2(CN(Cc3ccc(C)o3)C2)C1` | 24.71 | -0.3864 |
| 33 | `CC(C)NC(=O)C1CN(C(=O)Nc2ccccc2)CC12CCOCC2` (configuration not stated) | -14.6 | -4.432 |
| 34 | `[H][C@@]12CN(C(=O)c3ccncc3)C[C@]1([H])OCCN2C(C)C` | 20.07 | -13.72 |
| 35 | `Cn1cc(C(=O)N2CCCC(CN3CCCC3=O)C2)cn1` (configuration not stated) | -21.2 | -4.225 |
| 36 | `CCc1nnc2n1CCN(C(=O)c1ccc(-c3ccco3)[nH]c1=O)C2` | - | -20.56 |
| 37 | `COCCNc1cc(-c2ccccc2CCN)c2cc[nH]c2n1` | 8.658 | 21.82 |
| 38 | `CC(C)CNC(=O)c1cc(C2CC2)nc2onc(C3CCNCC3)c12` | - | -37.53 |
| 39 | `C[C@@H]1CN(C2CCOCC2)C[C@]12CCN(c1cccnc1)C2=O.O=C(O)C(F)(F)F.O=C(O)C(F)(F)F` | -5.65 | -1.171 |
| 40 | `Cc1cc(NC2CCc3ncnn3C2)n2nc(C(F)(F)F)nc2n1` (configuration not stated) | 10.68 | -2.822 |
| 41 | `NC(=O)C1CCCN1Cc1nccn1CC(F)(F)F` (configuration not stated) | - | -139.8 |
| 42 | `Cc1c(-c2cccs2)nn2c(O)c3c(nc12)CN(C(=O)C1CC1)C3` | 54.87 | 0.2897 |
| 43 | `O=C(CCn1c(C(F)F)cc2cccnc21)NC1CC1` | 23.18 | -4.45 |
| 44 | `CCC(NC(=O)Nc1ccc(OC)c(C)c1)c1ccncc1` (configuration not stated) | 89.35 | 91.94 |
| 45 | `O=C(O)C(F)(F)F.[H][C@@]12CCCO[C@]1([H])[C@H](NC(=O)c1cnoc1C)CN(Cc1ccco1)C2` | -2.383 | 4.265 |
| 46 | `N#Cc1ccc(OCCOc2ccccc2C(=O)N2CCOCC2)cc1` | 17.64 | -25.31 |
| 47 | `CC(C)c1nc(C2CCCN(C(=O)c3ccc4[nH]cnc4c3)C2)no1` (configuration not stated) | - | -13.93 |
| 48 | `COCCN1C(=O)CC(c2cccnc2)C12CCN(C)CC2` (configuration not stated) | 3.397 | 1.579 |
| 49 | `CC(C)NC(=O)CN1CCN(CC2CCOc3ccccc3C2)CC1` (configuration not stated) | 7.087 | -7.254 |
| 50 | `O=C(O)C(F)(F)F.[H][C@@]12COC[C@]1(C(=O)NCCc1cccs1)CN(C1CCOCC1)C2` | 5.708 | 3.117 |
| 51 | `CC(C)CNC(=O)CC1(Cn2cnnn2)CCCCC1` | 4.376 | 4.16 |
| 52 | `CC(c1ccon1)N(C)C(=O)C1CCN(C(=O)C2CCC2)CC1` (configuration not stated) | -37.95 | -17.6 |
| 53 | `Cc1cc2cccc(C(=O)N3CCOC4(CNCCOC4)C3)c2o1` (configuration not stated) | -10.67 | -19.44 |
| 54 | `CCN(C)C(=O)c1cccc(S(=O)(=O)NCCc2nc(C)cc(=O)[nH]2)c1` | - | 9.825 |
| 55 | `Cc1cc(C)c(C(=O)N2CCOCC2c2c(C)nn(C)c2C)o1` (configuration not stated) | - | -4.226 |
| 56 | `Cc1nn(CCN2CCSCC2)cc1CNCC1CC1` | 18.18 | -21.01 |
| 57 | `CCn1cnnc1C1CCN(C(=O)c2cccc(OC)c2OC)CC1` | -35.27 | -21.68 |

Repeated from the top, 7 entries:

compound	Mtb growth Cornell	Mtb heat-shock
COc1ccc(OC)c(Sc2ncccc2C(=O)NCCSC)c1	-9.266	44.62
NS(=O)(=O)c1cccnc1Nc1c(Cl)cccc1Cl	-19.32	10.44
CCc1ccsc1C(=O)N1CCCN(Cc2cscn2)CC1	-	11.31
COc1ccc(-c2cc(N)ccn2)c(OC)c1OC	3.133	-30.07
Cn1c(CO)nnc1SCc1c(F)cccc1Br	-	-16.17
CCOCC1CN(C(=O)c2cccc(C)n2)Cc2cnn(C)c21 (configuration not stated)	27.18	-14.82
Cc1cnc(N2CCc3c(c(COc4cncnc4)nn3C)C2)nc1	4.12	-10.68